Measured values taken from paper PMC2664966.

The chains behind the UniProt entries cited, without tags or fusion partners. Where a name states a change or a piece, a line headed by the entry shows the natural chain unless it says otherwise.
UniProt P28074: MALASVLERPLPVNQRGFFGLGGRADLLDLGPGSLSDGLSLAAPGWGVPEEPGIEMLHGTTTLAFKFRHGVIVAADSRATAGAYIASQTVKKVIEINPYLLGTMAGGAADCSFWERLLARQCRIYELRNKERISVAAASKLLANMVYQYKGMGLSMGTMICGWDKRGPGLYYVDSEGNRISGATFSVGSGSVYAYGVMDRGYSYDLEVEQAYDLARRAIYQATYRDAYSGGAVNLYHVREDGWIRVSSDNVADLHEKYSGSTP

Molecular target: 20S proteasome β5 subunit (human) (UniProt P28074)
Test: peptide or protein array; ProtoArray Human Protein Microarray v4.0 (Invitrogen, more than 8,000 human proteins immobilized) probed with Alexa Fluor 568-labelled HAMLET at 5 and 50 ng/µl in duplicate; hits by Z-score against a negative control array without HAMLET; both purified

B1: Alexa Fluor 568-labeled HAMLET (protein, UniProt P00709 20-142)
chain: KQFTKCELSQLLKDIDGYGGIALPELICTMFHTSGYDTQAIVENNESTEYGLFQISNKLWCKSSQVPQSRNICDISCDKFLDDDITDDIMCAKKILDIKGIDYWLAHKALCTEKLEQWLCEKL
modifications: Alexa Fluor 568 conjugate (residues not stated)
Question: How did the binding turn out when B1 was run?
Answer: binds

Results are given in words; binding and its absence hold for the method and conditions named. Binding calls can cover weak binding; strength is not graded here.
